Results are given in words; binding and its absence hold for the method and conditions named. Some results given as binding are weak or reduced against the parent protein; the word gives no strength. Where a sequence is shown, tags or fusion partners need not be part of it.

One experiment addresses T1, BMP-2 (R&D Systems) (UniProt P12643).
T1 sequence (looked up): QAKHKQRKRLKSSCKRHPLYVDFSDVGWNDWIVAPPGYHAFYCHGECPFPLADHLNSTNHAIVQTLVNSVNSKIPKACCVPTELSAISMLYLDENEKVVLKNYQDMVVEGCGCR
The experiment can be described thus: enzyme immunoassay, BMP-2 coated at 100 nM, gremlin-1-Fc 10 nM, HRP anti-IgG-Fc.

Another experiment addresses T2, BMP-4 (R&D Systems) (UniProt P12644).
T2 sequence (looked up): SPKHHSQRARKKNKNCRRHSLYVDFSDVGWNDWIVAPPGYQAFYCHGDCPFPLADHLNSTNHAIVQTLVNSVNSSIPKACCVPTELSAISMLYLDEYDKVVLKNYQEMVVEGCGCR
The experiment can be described thus: enzyme immunoassay, BMP-4 coated at 100 nM, gremlin-1-Fc 10 nM, HRP anti-IgG-Fc.

B1: gremlin-1-Fc fusion protein (human gremlin-1 and human IgG1-Fc) (Fc fusion, UniProt O60565 25-184, looked up, not shown: a dimerising Fc or GST)
chain: KKKGSQGAIPPPDKAQHNDSEQTQSPQQPGSRNRGRGQGRGTAMPGEEVLESSQEALHVTERKYLKRDWCKTQPLKQTIHEEGCNSRTIINRFCYGQCNSFYIPRHIRKEEGSFQSCSFCKPKKFTTMMVTLNCPELQPPTKKKRVTRVKQCRCISIDLD
B1: the binding entry with BMP-2 (R&D Systems) and in the experiment with BMP-4 (R&D Systems) was “binds” in each case.
